Results are given in words; binding and its absence hold for the method and conditions named. In cells and extracts the contact can be indirect. Some entries that bind do so weakly or less than the wild type. For some of these results: Where a sequence is shown, tags or fusion partners need not be part of it.
Experiments:
[1] = biological target: Myc-UBC7 (human) (UniProt P60604); test: co-immunoprecipitation from 293T cells (FIG. 5)
[2] = biological target: T1, Myc-tagged UBC6 (human) (UniProt Q9Y385); test: co-immunoprecipitation from 293T cells (FIG. 5)
T1 sequence (looked up): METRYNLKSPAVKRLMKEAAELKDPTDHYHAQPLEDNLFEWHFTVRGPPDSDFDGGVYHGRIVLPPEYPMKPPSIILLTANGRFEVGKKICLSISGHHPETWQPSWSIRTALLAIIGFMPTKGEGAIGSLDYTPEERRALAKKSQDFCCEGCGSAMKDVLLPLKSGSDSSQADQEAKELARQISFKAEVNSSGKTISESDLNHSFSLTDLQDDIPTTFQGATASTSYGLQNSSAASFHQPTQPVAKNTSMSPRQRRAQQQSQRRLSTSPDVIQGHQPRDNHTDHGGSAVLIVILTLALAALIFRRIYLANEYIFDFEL

Amino acid sequences for entries named in this document (tags omitted). Residues count along the entry.
UniProt P60604, residues 2-165: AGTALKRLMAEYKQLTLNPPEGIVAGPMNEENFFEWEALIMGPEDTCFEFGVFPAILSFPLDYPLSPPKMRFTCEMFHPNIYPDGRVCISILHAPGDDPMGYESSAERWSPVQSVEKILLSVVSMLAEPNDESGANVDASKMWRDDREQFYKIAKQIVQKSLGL
UniProt O60260: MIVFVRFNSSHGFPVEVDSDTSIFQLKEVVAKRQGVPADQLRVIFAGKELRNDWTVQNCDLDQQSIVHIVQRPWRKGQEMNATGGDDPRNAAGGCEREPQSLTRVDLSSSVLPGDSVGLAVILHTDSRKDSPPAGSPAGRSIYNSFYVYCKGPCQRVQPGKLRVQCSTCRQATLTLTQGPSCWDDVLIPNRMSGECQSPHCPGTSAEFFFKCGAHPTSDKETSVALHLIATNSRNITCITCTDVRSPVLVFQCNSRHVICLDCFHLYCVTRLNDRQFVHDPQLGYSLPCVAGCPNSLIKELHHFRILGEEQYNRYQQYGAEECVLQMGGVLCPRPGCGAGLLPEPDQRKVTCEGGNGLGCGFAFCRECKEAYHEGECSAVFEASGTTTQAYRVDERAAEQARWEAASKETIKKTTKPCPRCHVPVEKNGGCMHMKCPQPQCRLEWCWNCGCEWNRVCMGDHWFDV

[3] = biological target: Myc-UBC7 (human) (UniProt P60604); test: co-immunoprecipitation from 293T cells (FLAG-IP, anti-Myc Western blot)
[4] = biological target: T1, Myc-tagged UBC6 (human); test: as above
[5] = biological target: Myc-UBC7 (human) (UniProt P60604); test: summary of the co-immunoprecipitation of FIG. 5
[6] = biological target: T1, Myc-tagged UBC6 (human); test: summary of the co-immunoprecipitation of FIG. 5
[7] = biological target: T2, human Pael receptor (human) (UniProt O15354); test: summary of the filing's two-hybrid and co-immunoprecipitation experiments
T2 sequence: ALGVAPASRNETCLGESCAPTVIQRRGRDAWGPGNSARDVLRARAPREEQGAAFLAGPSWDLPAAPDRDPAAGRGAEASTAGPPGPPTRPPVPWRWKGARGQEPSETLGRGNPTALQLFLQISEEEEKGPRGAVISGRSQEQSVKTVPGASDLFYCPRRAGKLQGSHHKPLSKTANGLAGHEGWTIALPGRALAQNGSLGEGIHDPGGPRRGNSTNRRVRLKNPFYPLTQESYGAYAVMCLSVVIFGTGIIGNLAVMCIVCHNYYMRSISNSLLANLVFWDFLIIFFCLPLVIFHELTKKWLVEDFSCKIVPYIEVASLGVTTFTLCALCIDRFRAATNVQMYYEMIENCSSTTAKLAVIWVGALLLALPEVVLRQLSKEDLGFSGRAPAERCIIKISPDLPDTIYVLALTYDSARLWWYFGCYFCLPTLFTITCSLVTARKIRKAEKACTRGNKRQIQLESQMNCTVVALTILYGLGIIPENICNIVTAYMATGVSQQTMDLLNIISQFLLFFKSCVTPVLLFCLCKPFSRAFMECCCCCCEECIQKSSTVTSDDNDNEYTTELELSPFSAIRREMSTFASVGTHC

[8] = biological target: T3, human Pael receptor-FLAG (human) (UniProt O15354); test: co-immunoprecipitation from 293T lysate with anti-Parkin polyclonal antibodies, Western blot
T3 sequence: T2 sequence

[9] = biological target: T2, human Pael receptor (human); test: co-immunoprecipitation from human brain and SH-SY5Y lysate with anti-Parkin antisera, Western blot with anti-Pael receptor monoclonal antibodies
[10] = biological target: T2, human Pael receptor (human); test: summary of the co-immunoprecipitation experiments of Examples 2 to 4

Measured: binding

FLAG-tagged Parkin (Wild type) (from UniProt O60260 1-465) (enzyme)
binds: [1] | [2] | [3] | [4] | [5] | [6]

human Parkin (from UniProt O60260 1-465) (enzyme)
binds: [7] | [8] | [9] | [10]
